Assay results reported in patent US20040192652A1, “Pharmaceutical combinations and methods for the treatment of leukemia” (priority 2002, published 2004).
Structures can show the parent of a compound that is named as a salt.

Legend:
Experiment in all cases: cells
[1] = tested on: KBM-7 cells; details: Homo sapiens, KBM-7, read-out: effective dose of STI-571 which kills 50% of cells
[2] = tested on: KBM-5 cells; details: Homo sapiens, KBM5, read-out: effective dose of STI-571 which kills 50% of cells
[3] = tested on: KBM5-STI^R1.0 cells; details: Homo sapiens, read-out: effective dose of STI-571 which killed 50% of cells
[4] = tested on: KBM7-STI^R1.0 cells; details: Homo sapiens, read-out: effective dose of STI-571 which killed 50% of cells

Question: How did the IC50 [1] turn out when `Cc1ccc(NC(=O)c2ccc(CN3CCN(C)CC3)cc2)cc1Nc1nccc(-c2cccnc2)n1` [STI-571, imatinib mesylate] was run?
Answer: 300 nM

Question: What about the IC50 [2] of the same molecule?
Answer: 600 nM

Question: And the IC50 [3]?
Answer: 10000 nM

Question: And the IC50 [4]?
Answer: 3000 nM
